This note sets out measurements from publication doi:10.1101/129551.

The chains behind the UniProt entries cited, without tags or fusion partners. Residues count along the entry.
UniProt P63044: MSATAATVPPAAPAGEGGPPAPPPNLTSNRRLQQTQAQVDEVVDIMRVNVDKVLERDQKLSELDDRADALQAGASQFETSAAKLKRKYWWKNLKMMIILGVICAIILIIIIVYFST
UniProt P05067, residues 672-713: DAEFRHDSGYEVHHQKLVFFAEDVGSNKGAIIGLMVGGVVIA

Experiment [1] addresses synaptobrevin 2 (VAMP2), endogenous mouse (mouse (endogenous in cortical neurons and brain synaptosomes)) (UniProt P63044). The experiment is described as follows: co-IP.
The target of the next experiment is β-amyloid peptide Aβ42 (UniProt P05067). The experiment is described as follows: pull-down.

Results are given in words; binding and its absence hold for the method and conditions named. In cells and extracts the contact can be indirect. Some results given as binding are weak or reduced against the parent protein; the word gives no strength.

B1: synaptogyrin 1 (SYNGR1), endogenous mouse (protein, UniProt O55100 1-234)
chain: MEGGAYGAGKAGGAFDPYTLVRQPHTILRVVSWVFSIVVFGSIVNEGYLNNPEEEEEFCIYNRNPNACSYGVTVGVLAFLTCLLYLALDVYFPQISSVKDRKKAVLSDIGVSAFWAFFWFVGFCFLANQWQVSKPKDNPLNEGTDAARAAIAFSFFSIFTWAGQAVLAFQRYQIGADSALFSQDYMDPSQDSSMPYAPYVEPSAGSDPAGMGGTYQHPANAFDAEPQGYQSQGY
For the molecule B1, the values for the binding result (in experiment [1]; in the experiment with β-amyloid peptide Aβ42) were “binds” and “no binding”, respectively.
